Experimental data published in PubChem BioAssay AID2718 (Broad Institute, 2010).
In all, about 320,000 compounds went through this assay and about 480 (0.15%) were called active. Inconclusive means that the source gave no clear call. Such entries were picked first, then a sample of the others. No stated cut-off is given here; in the data, active means inhibition above about 26% (passing the limit was not always enough); inconclusive means no clear call, values can overlap the other calls.

By UniProt entry, the sequences of proteins in these tests, tags left out.
UniProt O15379, whole entry, looked up: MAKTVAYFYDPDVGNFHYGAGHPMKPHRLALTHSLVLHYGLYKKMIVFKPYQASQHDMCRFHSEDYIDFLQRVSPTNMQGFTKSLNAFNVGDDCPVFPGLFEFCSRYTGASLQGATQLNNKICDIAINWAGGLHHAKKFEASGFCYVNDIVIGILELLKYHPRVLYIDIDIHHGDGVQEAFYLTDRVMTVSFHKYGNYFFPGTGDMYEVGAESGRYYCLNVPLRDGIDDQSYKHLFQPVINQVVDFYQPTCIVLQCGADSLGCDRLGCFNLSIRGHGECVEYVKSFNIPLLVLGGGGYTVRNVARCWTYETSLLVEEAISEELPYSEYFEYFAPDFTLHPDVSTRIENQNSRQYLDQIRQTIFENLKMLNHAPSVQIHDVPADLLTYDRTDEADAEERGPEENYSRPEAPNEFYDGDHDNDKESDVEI

What follows are compounds tested against Histone deacetylase 3 (Homo sapiens) (UniProt O15379) (assay: HDAC3 deacetylase inhibitors, primary screen, biochemical, fluorescence, cell-free homogeneous (AID 2718)). Conditions: recombinant HDAC3, fluorogenic peptide/trypsin coupled, at 8.3 µM, stronger effect = higher value.

SMILES | inhibition
CCOC(=O)c1sc(NC(=O)/C=C/c2ccc(F)cc2)nc1C | inconclusive: 20.5%
COc1ccc(C)cc1NC(=O)C1CCCN(S(=O)(=O)c2cccs2)C1 (stereo not given) | inconclusive: 20%
Cc1cccc(C(=O)Nc2ccc(O)cc2C(=O)O)c1 | inconclusive: 12.3%
O=C(COC(=O)c1ccncc1)Nc1cccc2ccccc12 | inconclusive: 24.8%
O=C(C1CC(=O)N(c2ccccc2)C1)N1CCN(c2ccccc2F)CC1 (stereo not given) | inconclusive: 21%
O=C(CSC1=NCCS1)c1ccc(Cl)cc1 | active: 71.5%
CC(=O)C1=C(C)NC(SCC(=O)c2ccc(-c3ccccc3)cc2)=C(C#N)C1c1cccnc1 (stereo not given) | inactive: -5.29%
CCOc1cc(C(=O)OC(C(=O)NC(=O)NC)c2ccccc2)ccc1OCC(=O)N1CCOCC1 (stereo not given) | active: 26.6%
CCOC(=O)c1cn2c(C)cccc2n1 | inconclusive: 14.3%
Cc1cc(C)cc(C(=O)NCC(=O)OCC(=O)Nc2ccc(C)cc2Br)c1 | inactive: 1.24%
O=C1CC(C(=O)O)c2ccccc2N1 (stereo not given) | inconclusive: 24%
O=C(c1ccco1)n1nc(-c2cccnc2)nc1NCc1ccco1 | inconclusive: 47.1%
COc1ccc(C2NC(=O)C(=O)/C2=C(\O)c2ccc(Cl)cc2)cc1OC (stereo not given) | inconclusive: 19.9%
CCOc1ccc(S(=O)(=O)NCc2cccs2)cc1 | inconclusive: 21.1%
C=CC[C@@H](CC(=O)N[C@@H](CO)Cc1ccccc1)C(=O)N[C@H](COC(=O)[C@H](CC=C)CC(=O)OC(C)(C)C)Cc1c[nH]c2ccccc12 | inconclusive: 28.1%
FC(F)(F)c1ccccc1NC(=S)N1CCCC1 | inactive: 1.59%
COc1ccc(Cn2c(CO)cnc2SCC(=O)Nc2cc(C)on2)cc1 | inactive: 0.377%
Cc1ccc(C(=O)CSc2nn3c(=O)c(C(C)(C)C)nnc3s2)cc1 | inactive: -1.06%
Nc1cccc2c1C(=O)N(C(=O)c1cccc(S(=O)(=O)N3CCCCCC3)c1)C2=O | inconclusive: 24.1%
CC1=NN(C(=O)c2ccccc2Br)C(O)(c2cccnc2)C1 (stereo not given) | inconclusive: 12.9%
Cc1nnc(SCC(=O)Nc2ncc3c(n2)CC(C)(C)CC3=O)s1 | inconclusive: 9.73%
COc1ccccc1OCC(=O)NNc1c2ccccc2nc2ccccc12 | inactive: 16.7%
C#CCOCCOCCOCCNc1nc(N2CCN(C(=O)CCCCCCCCCCNC(=O)[C@@H](CCC(=O)O)n3cc(CCCCCN)nn3)CC2)nc(N2CCN(C(=O)CCCCCCCCCCNC(=O)[C@H](CCCCN)n3cc(C[C@@H](C)CC)nn3)CC2)n1 | inconclusive: 22.5%
Nc1c(C(=O)O)ccc2c1C(=O)c1ccccc1C2=O | inconclusive: 16.2%
CCOC(=O)c1c(C)[nH]c(C)c1S(=O)(=O)NCC(=O)Nc1ccccn1 | inconclusive: 23%
CCN(CCCNC(=O)C1CCC(=O)N1Cc1ccc(C)cc1)c1cccc(C)c1 (stereo not given) | inconclusive: 19.1%
CCOc1cc(/C=N/NC(=O)C(=O)NCC2CCCO2)ccc1OCC(=O)N1CCOCC1 (stereo not given) | inactive: 7.43%
COCCN(C(=O)/C=C/c1cccc([N+](=O)[O-])c1)c1c(N)n(Cc2ccccc2)c(=O)[nH]c1=O | inconclusive: 13.6%

SMILES | inhibition
CCOC(=O)C1CCN(Cc2cnc(Oc3ccc(N)cc3)s2)CC1 | inactive: 3.23%
COc1ccc(CC(=O)N/N=C/c2cccn2-c2ccc([N+](=O)[O-])cc2)cc1OC | inconclusive: 17.4%
CCC(=O)N1CCc2cc(S(=O)(=O)CCC(=O)Nc3ccc(F)c(F)c3)ccc21 | inconclusive: 22%
C=CCOc1ccc(C2c3c(oc4ccccc4c3=O)C(=O)N2CCCN2CCOCC2)cc1 (stereo not given) | inconclusive: 34.7%
O=[N+]([O-])c1cc2c(cc1Br)CCN2 | inconclusive: 20.8%
CCCCn1c(N)c(N(CCOC)C(=O)CSc2ccc([N+](=O)[O-])cc2)c(=O)[nH]c1=O | inactive: 3.94%
c1cc2cn[nH]c2cc1NC1CCCCCC1 | inactive: -7.55%
O=C(Cc1ccccc1)N/N=C/c1ccc(Cl)cc1Cl | inconclusive: 19.6%
O=C(NCCc1ccccc1)C1CCCN(C(=O)NC2CCCCC2)C1 (stereo not given) | inconclusive: 13%
Cn1nc(C(=O)N2CCC(C(N)=O)CC2)c2c1-c1ccccc1SC2 | inactive: -0.0117%
CCC(=O)c1ccc(OC(=O)c2cccs2)cc1 | active: 62.3%
CC(=O)c1cccc(NC(=O)C(CC(C)C)NC(=O)C2CCCCC2)c1 (stereo not given) | inconclusive: 12.8%
O=C(NC1CC1)c1cccc(Oc2ccccc2)c1 | inconclusive: 30.6%
Cc1sc2ncn(CC(=O)NCCCN3CC(C)CC(C)C3)c(=O)c2c1S(=O)(=O)N1CC(C)CC(C)C1 (stereo not given) | inactive: -6.64%
CCNC(=O)c1ccc(=O)n(Cc2ccc(Cl)cc2Cl)c1 | inactive: 4.42%
O=C(COC(=O)COc1ccc(Br)cc1)NC1CCCC1 | inconclusive: 18.2%
CN(C)C(CNC(=O)c1ccc(C2SCCS2)cc1)c1ccccc1 (stereo not given) | active: 54.2%
COc1ccc(C2=NOC(C(=O)NCc3ccc(F)cc3)C2)cc1 (stereo not given) | inconclusive: 20.1%
CCCCOC(=O)c1ccc(NC(=O)c2ccoc2C)cc1 | inconclusive: 18.5%
CCC(CC)C(=O)Nc1cccc(-c2ccc3nncn3n2)c1 | inconclusive: 11.1%
Cc1nn(C(=O)c2ccccc2)c2c1C(=O)CC(C)(C)C2 | active: 90.9%
COc1cc(C2NC(=O)NC(O)(C(F)(F)F)C2C(=O)c2cccs2)ccc1O (stereo not given) | inconclusive: 13.7%
O=C(CSc1nnc(-c2ccc(O)cc2)n1Cc1ccco1)c1cccs1 | inactive: 1.91%
C=CCC[C@H](Cc1ccc(F)cc1)C(=O)OC[C@@H](Cc1c[nH]c2ccccc12)NC(=O)[C@@H](CC=C)CC(=O)N(CCO)Cc1ccccc1 | active: 40%
COc1cccc(-c2nc(CS(=O)(=O)CC(=O)NCCc3ccc(OC)cc3OC)c(C)o2)c1 | inactive: -3.7%
CCCC(=O)NC(c1ccc(C)cc1)c1ccc2cccnc2c1O (stereo not given) | inactive: -0.0285%
Cc1ccc(CN2CCN(/N=C/c3cccnc3)CC2)cc1 | inactive: 3.96%

Reformatted tab-delimited: entries from further up
SMILES	inhibition
COc1ccc(Cn2c(CO)cnc2SCC(=O)Nc2cc(C)on2)cc1	inactive: 0.377%
CCCCn1c(N)c(N(CCOC)C(=O)CSc2ccc([N+](=O)[O-])cc2)c(=O)[nH]c1=O	inactive: 3.94%
O=C(COC(=O)COc1ccc(Br)cc1)NC1CCCC1	inconclusive: 18.2%
